Values from PubChem BioAssay AID1159597 (NIAID, 2016)
The whole screen tested 756 reagents; below is a part drawn at random. 140 of them (19%) were called active. 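Calls mark clear shifts in either direction, lowered or raised; calls are per siRNA, gene-level medians over six siRNAs not deposited.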 The numbers tell different reagents against one gene apart. The record does not give: the amount of reagent.

- Aim: 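Role of canonical TLR signalling genes in the human macrophage LPS response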
- Cell system: human THP-1 B5 reporter clone (monocytic leukaemia line), PMA-differentiated to macrophage-like cells
- Knock-down reagent: single siRNA against human genes
- Duration: LPS for 4 h before read-out; assayed 48 to 72 h after siRNA transfection
- Treatment: LPS (Salmonella minnesota R595) for 4 h; concentration not given
- Measured: 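After 4 h LPS, firefly TNF promoter luciferase over renilla, as a plate median/MAD robust z-score averaged across replicates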
- Scale: TNF reporter z-score: higher = stronger TNF promoter activity after LPS
- Call rule: In these data the active calls have TNF reporter z-score, replicate mean at about -1.5 or lower, or at about 1.53 or higher
- Meaning of the calls: active = clear shift in reporter, either direction; inactive = little shift in reporter

| gene | reagent | TNF reporter z-score, replicate mean | call |
| --- | --- | --- | --- |
| IFNB1 (interferon beta 1) | 1 | -1.15 | inactive |
| IFNB1 (interferon beta 1) | 2 | -1.54 | active |
| IFNB1 (interferon beta 1) | 3 | -0.571 | inactive |
| IFNB1 (interferon beta 1) | 4 | -0.557 | inactive |
| IFNB1 (interferon beta 1) | 5 | -0.615 | inactive |
| IFNB1 (interferon beta 1) | 6 | -2.09 | active |
| IRAK3 (interleukin 1 receptor associated kinase 3) | 1 | 0.085 | inactive |
| IRAK3 (interleukin 1 receptor associated kinase 3) | 2 | -0.753 | inactive |
| IRAK3 (interleukin 1 receptor associated kinase 3) | 3 | -0.0216 | inactive |
| IRAK3 (interleukin 1 receptor associated kinase 3) | 4 | 0.654 | inactive |
| IRAK3 (interleukin 1 receptor associated kinase 3) | 5 | -0.543 | inactive |
| IRAK3 (interleukin 1 receptor associated kinase 3) | 6 | -0.249 | inactive |
| NFKB1 (nuclear factor kappa B subunit 1) | 1 | -0.828 | inactive |
| NFKB1 (nuclear factor kappa B subunit 1) | 2 | 1.08 | inactive |
| NFKB1 (nuclear factor kappa B subunit 1) | 3 | -0.37 | inactive |
| NFKB1 (nuclear factor kappa B subunit 1) | 4 | -0.82 | inactive |
| NFKB1 (nuclear factor kappa B subunit 1) | 5 | 1.32 | inactive |
| NFKB1 (nuclear factor kappa B subunit 1) | 6 | -0.162 | inactive |
| MAP3K8 (mitogen-activated protein kinase kinase kinase 8) | 1 | -0.947 | inactive |
| MAP3K8 (mitogen-activated protein kinase kinase kinase 8) | 2 | -1.95 | active |
| MAP3K8 (mitogen-activated protein kinase kinase kinase 8) | 3 | -0.487 | inactive |
| MAP3K8 (mitogen-activated protein kinase kinase kinase 8) | 4 | -1.27 | inactive |
| MAP3K8 (mitogen-activated protein kinase kinase kinase 8) | 5 | -2.39 | active |
| MAP3K8 (mitogen-activated protein kinase kinase kinase 8) | 6 | -0.934 | inactive |
| UBE2V1 (ubiquitin conjugating enzyme E2 V1) | 1 | 0.0622 | inactive |
| UBE2V1 (ubiquitin conjugating enzyme E2 V1) | 2 | -0.557 | inactive |
| UBE2V1 (ubiquitin conjugating enzyme E2 V1) | 3 | 1.23 | inactive |
| UBE2V1 (ubiquitin conjugating enzyme E2 V1) | 4 | -0.0728 | inactive |
| UBE2V1 (ubiquitin conjugating enzyme E2 V1) | 5 | -1.09 | inactive |
| UBE2V1 (ubiquitin conjugating enzyme E2 V1) | 6 | 0.0244 | inactive |
| MAPK9 (mitogen-activated protein kinase 9) | 1 | -0.701 | inactive |
| MAPK9 (mitogen-activated protein kinase 9) | 2 | -1.82 | active |
| MAPK9 (mitogen-activated protein kinase 9) | 3 | 0.651 | inactive |
| MAPK9 (mitogen-activated protein kinase 9) | 4 | 0.505 | inactive |
| MAPK9 (mitogen-activated protein kinase 9) | 5 | -0.751 | inactive |
| MAPK9 (mitogen-activated protein kinase 9) | 6 | 0.702 | inactive |
| IRF5 (interferon regulatory factor 5) | 1 | -4.09 | active |
| IRF5 (interferon regulatory factor 5) | 2 | -0.413 | inactive |
| IRF5 (interferon regulatory factor 5) | 3 | 0.549 | inactive |
| IRF5 (interferon regulatory factor 5) | 4 | -0.0109 | inactive |
| IRF5 (interferon regulatory factor 5) | 5 | -0.978 | inactive |
| IRF5 (interferon regulatory factor 5) | 6 | 0.549 | inactive |
| CD180 (CD180 molecule) | 1 | -0.28 | inactive |
| CD180 (CD180 molecule) | 2 | -0.393 | inactive |
| CD180 (CD180 molecule) | 3 | -0.903 | inactive |
| CD180 (CD180 molecule) | 4 | -0.957 | inactive |
| CD180 (CD180 molecule) | 5 | 0.767 | inactive |
| CD180 (CD180 molecule) | 6 | 0.315 | inactive |
| TLR2 (toll like receptor 2) | 1 | 1.18 | inactive |
| TLR2 (toll like receptor 2) | 2 | 0.674 | inactive |
| TLR2 (toll like receptor 2) | 3 | -0.621 | inactive |
| TLR2 (toll like receptor 2) | 4 | 0.151 | inactive |
| TLR2 (toll like receptor 2) | 5 | -0.629 | inactive |
| TLR2 (toll like receptor 2) | 6 | -0.437 | inactive |
| CREBBP (CREB binding lysine acetyltransferase) | 1 | 1.81 | active |
| CREBBP (CREB binding lysine acetyltransferase) | 2 | 0.728 | inactive |
| CREBBP (CREB binding lysine acetyltransferase) | 3 | 0.685 | inactive |
| CREBBP (CREB binding lysine acetyltransferase) | 4 | -0.0143 | inactive |
| CREBBP (CREB binding lysine acetyltransferase) | 5 | -0.216 | inactive |
| CREBBP (CREB binding lysine acetyltransferase) | 6 | 0.189 | inactive |

As entered above.
IRAK3 (interleukin 1 receptor associated kinase 3) #3, TNF reporter z-score, replicate mean → -0.0216
Under “TNF reporter z-score, replicate mean”, IRAK3 (interleukin 1 receptor associated kinase 3) #5 has -0.543
CREBBP (CREB binding lysine acetyltransferase) #2, call: inactive
IRAK3 (interleukin 1 receptor associated kinase 3) #6, TNF reporter z-score, replicate mean → -0.249
Result of NFKB1 (nuclear factor kappa B subunit 1) #1 under “call”: inactive
Under “call”, CREBBP (CREB binding lysine acetyltransferase) #5 shows inactive

Next results:
| gene | reagent | TNF reporter z-score, replicate mean | call |
| --- | --- | --- | --- |
| AKT2 (AKT serine/threonine kinase 2) | 1 | -2.53 | active |
| AKT2 (AKT serine/threonine kinase 2) | 2 | -0.453 | inactive |
| AKT2 (AKT serine/threonine kinase 2) | 3 | -1.27 | inactive |
| AKT2 (AKT serine/threonine kinase 2) | 4 | -1.43 | inactive |
| AKT2 (AKT serine/threonine kinase 2) | 5 | -0.143 | inactive |
| AKT2 (AKT serine/threonine kinase 2) | 6 | 1.61 | active |
| ELK1 (ETS transcription factor ELK1) | 1 | -2.44 | active |
| ELK1 (ETS transcription factor ELK1) | 2 | -1.96 | active |
| ELK1 (ETS transcription factor ELK1) | 3 | -1.3 | inactive |
| ELK1 (ETS transcription factor ELK1) | 4 | -0.419 | inactive |
| ELK1 (ETS transcription factor ELK1) | 5 | 0.192 | inactive |
| ELK1 (ETS transcription factor ELK1) | 6 | -0.337 | inactive |
| REL (REL proto-oncogene, NF-kB subunit) | 1 | -1.06 | inactive |
| REL (REL proto-oncogene, NF-kB subunit) | 2 | -0.79 | inactive |
| REL (REL proto-oncogene, NF-kB subunit) | 3 | 0.13 | inactive |
| REL (REL proto-oncogene, NF-kB subunit) | 4 | -0.492 | inactive |
| REL (REL proto-oncogene, NF-kB subunit) | 5 | -0.197 | inactive |
| REL (REL proto-oncogene, NF-kB subunit) | 6 | -0.654 | inactive |
| NFKB2 (nuclear factor kappa B subunit 2) | 1 | -0.654 | inactive |
| NFKB2 (nuclear factor kappa B subunit 2) | 2 | -0.32 | inactive |
| NFKB2 (nuclear factor kappa B subunit 2) | 3 | 1.71 | active |
| NFKB2 (nuclear factor kappa B subunit 2) | 4 | -0.348 | inactive |
| NFKB2 (nuclear factor kappa B subunit 2) | 5 | -2.6 | active |
| NFKB2 (nuclear factor kappa B subunit 2) | 6 | -1.33 | inactive |
| TRAF3 (TNF receptor associated factor 3) | 1 | -0.903 | inactive |
| TRAF3 (TNF receptor associated factor 3) | 2 | -0.726 | inactive |
| TRAF3 (TNF receptor associated factor 3) | 3 | -1.19 | inactive |
| TRAF3 (TNF receptor associated factor 3) | 4 | -0.832 | inactive |
| TRAF3 (TNF receptor associated factor 3) | 5 | -0.485 | inactive |
| TRAF3 (TNF receptor associated factor 3) | 6 | 0.159 | inactive |
| NFKBIA (NFKB inhibitor alpha) | 1 | 0.0248 | inactive |
| NFKBIA (NFKB inhibitor alpha) | 2 | -0.163 | inactive |
| NFKBIA (NFKB inhibitor alpha) | 3 | 0.758 | inactive |
| NFKBIA (NFKB inhibitor alpha) | 4 | -1.91 | active |
| NFKBIA (NFKB inhibitor alpha) | 5 | -1.58 | active |
| NFKBIA (NFKB inhibitor alpha) | 6 | -0.306 | inactive |
| CCL3 (C-C motif chemokine ligand 3) | 1 | -1.28 | inactive |
| CCL3 (C-C motif chemokine ligand 3) | 2 | -0.192 | inactive |
| CCL3 (C-C motif chemokine ligand 3) | 3 | -0.65 | inactive |
| CCL3 (C-C motif chemokine ligand 3) | 4 | -0.617 | inactive |
| CCL3 (C-C motif chemokine ligand 3) | 5 | 0.87 | inactive |
| CCL3 (C-C motif chemokine ligand 3) | 6 | -1.25 | inactive |
| IL1B (interleukin 1 beta) | 1 | 0.123 | inactive |
| IL1B (interleukin 1 beta) | 2 | -1.18 | inactive |
| IL1B (interleukin 1 beta) | 3 | -0.815 | inactive |
| IL1B (interleukin 1 beta) | 4 | -1.36 | inactive |
| IL1B (interleukin 1 beta) | 5 | -1.07 | inactive |
| IL1B (interleukin 1 beta) | 6 | -1.26 | inactive |
| UBE2N (ubiquitin conjugating enzyme E2 N) | 1 | 0.447 | inactive |
| UBE2N (ubiquitin conjugating enzyme E2 N) | 2 | -1.49 | inactive |
| UBE2N (ubiquitin conjugating enzyme E2 N) | 3 | 1.28 | inactive |
| UBE2N (ubiquitin conjugating enzyme E2 N) | 4 | -0.783 | inactive |
| UBE2N (ubiquitin conjugating enzyme E2 N) | 5 | -0.159 | inactive |
| UBE2N (ubiquitin conjugating enzyme E2 N) | 6 | 1 | inactive |
| MAP2K2 (mitogen-activated protein kinase kinase 2) | 1 | -0.225 | inactive |
| MAP2K2 (mitogen-activated protein kinase kinase 2) | 2 | 0.749 | inactive |
| MAP2K2 (mitogen-activated protein kinase kinase 2) | 3 | -0.119 | inactive |
| MAP2K2 (mitogen-activated protein kinase kinase 2) | 4 | 0.145 | inactive |
| MAP2K2 (mitogen-activated protein kinase kinase 2) | 5 | -0.087 | inactive |
| MAP2K2 (mitogen-activated protein kinase kinase 2) | 6 | 0.0219 | inactive |
| MAP3K1 (mitogen-activated protein kinase kinase kinase 1) | 1 | -1.26 | inactive |
| MAP3K1 (mitogen-activated protein kinase kinase kinase 1) | 2 | -1.14 | inactive |
| MAP3K1 (mitogen-activated protein kinase kinase kinase 1) | 3 | -0.292 | inactive |
| MAP3K1 (mitogen-activated protein kinase kinase kinase 1) | 4 | -1.46 | inactive |
| MAP3K1 (mitogen-activated protein kinase kinase kinase 1) | 5 | -0.685 | inactive |
| MAP3K1 (mitogen-activated protein kinase kinase kinase 1) | 6 | -0.193 | inactive |
| IRAK1 (interleukin 1 receptor associated kinase 1) | 1 | -0.606 | inactive |
| IRAK1 (interleukin 1 receptor associated kinase 1) | 2 | -3.26 | active |
| IRAK1 (interleukin 1 receptor associated kinase 1) | 3 | -1.72 | active |
| IRAK1 (interleukin 1 receptor associated kinase 1) | 4 | -0.964 | inactive |
| IRAK1 (interleukin 1 receptor associated kinase 1) | 5 | -1.42 | inactive |
| IRAK1 (interleukin 1 receptor associated kinase 1) | 6 | -2.12 | active |
| PIK3CD | 1 | -1.22 | inactive |
| PIK3CD | 2 | -0.0561 | inactive |
| PIK3CD | 3 | -0.216 | inactive |
| PIK3CD | 4 | -2.73 | active |
| PIK3CD | 5 | 0.0169 | inactive |
| PIK3CD | 6 | -1.71 | active |
| MAP2K1 (mitogen-activated protein kinase kinase 1) | 1 | -0.661 | inactive |
| MAP2K1 (mitogen-activated protein kinase kinase 1) | 2 | -0.0786 | inactive |
| MAP2K1 (mitogen-activated protein kinase kinase 1) | 3 | -1.42 | inactive |
| MAP2K1 (mitogen-activated protein kinase kinase 1) | 4 | 0.0931 | inactive |
| MAP2K1 (mitogen-activated protein kinase kinase 1) | 5 | 0.261 | inactive |
| MAP2K1 (mitogen-activated protein kinase kinase 1) | 6 | 0.544 | inactive |
